Test results taken from PMC7929561.
These are yes or no findings as the source states them, for the method shown. Binding seen in cells or lysates may run through a third protein. Here binding means that the protein was enriched with, or labelled near, the bait; the list need not be complete. Each block holds one binder with its values, some of them ahead of it.

Molecular target: GFP-tagged, full-length Dystroglycan (Dg::GFP) (Drosophila melanogaster)
Test: affinity purification with mass spectrometry; Dg::GFP immunoprecipitated with GFP-Trap beads (anti-GFP) from lysates of adult fly heads in RIPA buffer (50 mM Tris-HCl pH 7.5, 125 mM NaCl, 0.5% NP40, 0.25% Na-deoxycholate); SDS-PAGE, in-gel Lys-C digestion, LC-MS/MS; proteins enriched at least twofold over control in two biological replicates taken as Dg interactors

binding: binds
B1: Kibra (protein, UniProt Q9VFG8 1-1288)
chain: MPNLQQTASQSQHHLHPHHLRPQQQQQQHHHHHQQQQQQQHTHHQQQQQHHSDFPLPDGWDIAKDFDGKTYYIDHINKKTTWLDPRDCYTKPQTFEDCVGDELPMGWEESYDPNIGPYYINHLAQSTQLEDPRQEWKTVQEQMLSDYLSAAQDQLENKREMFDVKQQRLLWAQEEYNHLKLAASRSSLCSSSSSMSRHDPELLRADLMLARERVHQLKQELTHITNDISYTERGMNTLYSVGEKINARENGCYDIAEVHAIREEMLKVHKSLVSGEKVREELMRSLVQIKNELGRQQISEENSDLASPFDRVCVASQTDLCGSSGENLNGGARFAEMAKTKWQYAEWRKHIKKLQQQLADHVERIEPGQLESDKDRILLIQEKEKLLNDLNSISLKSRSEEEKRVIHQTRHKLEEDLKEAYEANNTCVANRLRFHEEKQLLLDKLQEALKSTKLLEERLKSFSSESTFSISSGSSLGSLSTASSKSALSFTDIYIDPFAVDSPIDVVDLRRRSQRLFQQHQQQRLHPVHPVLQQQQSAEVTLSPRSSLSMETPPASPMKYNAGADQTPQALKEEPTYANALPAPPAYTAPPPVPISGVRARPYDLDSTVLDCMMLEAKLQKLNMGTPLNLAVAPLSPISEKPSLLDLPQEMLSRSSSTSNTRSVSAAVSNESVAGDSGVFEASRAHLPRKELAQVQIGLKYLKQEGVLVVSLERANNLLALWTASADNSQVYLRAALLPNSLTSIRTKALGDFQKPVFNDTFAVPITLDKLLTKSLQVTVVTMTGQKEEIIGTVQISMAEFNPEDSTLKWYNVLSSKFIPSFESLDIPSTSAAAAAAAVAASNAPNPGNNREESSDESTITSSQTSTLTRNQAPCMELQEQMAAELLGLGPLNEPECSDDDDDDEEEELDDKQLVSDVGLMNSSSMLHAYLQNMKQEFADKETNTDRAYLPEKSRGQSQLMDDRPVKRSQTFTPSEAFSKNRYNCRLNRSDSDSAMHCGVAPHTFQRGAAERRSLRFHSKAPKSVTKLHHTHIPRTSLDLELDLQAQHSKLYFLNDQIAKLQNLKEVLQKACENKDPLVAAWAIENEEFQRLVARADPAKCPEERQLQKLLMKTAKEIHKLRKTKVPKGCPDLVSFKEKITFFTRKGLSVPELPSEFTLPEANPIEEEEEEEDENEFYNSAETAIAINTALVASSNRNKNLSEHPHRATSGAVPKIPAPVVTPAATPAATPAATPAATSAATPAATPVVSPAAQPDAKPADAPIPVASNDAEQQRFDYVVDRNYGVEV

binding: binds
B2: Vimar (protein, UniProt A1Z6S7 1-635)
chain: MATAEIDDLIEKLKTTSVSPANTTNLLCEISATKDPKLFDKHELAECFLGLTKCDDTNVRKEAAKCIAEITKSEVQRKKFTKRNIIAAFLECLRQVPTSDGSMELPIQICRALGNICYLNDEARDLILELEGDAVLLRLLDITTIEDVANAAQFIKVRGGLLSNYLLGGEGLAKRAMELGVMKKLQGIIDIGASNVEQHEDLLLNTLPLLSILTENVSDLNFDSSLNIQLSRILAASTNPDLAEMCLELLHYQAESDEVKLILAKDGLCETIYNLLEKYKTLASTSEARALMKLACELIVLILTGDDSMHYLYTTPLLKNMVDWLDSTDIDLLTTGVLALGNFARTDSHCIYFVEQQTMNKLLEVLAKNNGVKDDVRLQHALLSALRNLVIPKPNKNAVIQAGLVQTILPMLEIHQPPVVFKLLGTLRMTVDGQEKLALELLKNKTLIEQLVHWSKSSDYAGVTGESLRLMAWLIKHAYLSKIAYALPRKGDAPAEQIADKIPLTQDYDRSSLSEFLANEGTVEAMVSMLTAQHLVMQNEALIALCILSVVYLSQPSEAAQAQLLQDELVKCEVGKKLAELISKSSDTMTKEIVENLQNCVNLLKSSEQLVAHLEQHNINELLKSIPILTEYCTL
